According to article PMC12633904:

Target: SAP54^AY-WB (secreted AY-WB protein 54), mature peptide (Aster Yellows strain Witches' Broom (AY-WB) phytoplasma (Ca. Phytoplasma asteris))
Assay: two-hybrid; ProQuest Two-Hybrid system, yeast strain MaV203; SAP54 peptides fused to the GAL4 BD (pDEST32), MADS-box TFs and RAD23 proteins or domains fused to the GAL4 AD (pDEST22); growth on SD agar lacking Trp, Leu and His with 20, 25, 60 or 75 mM 3-AT, or lacking Trp, Leu, His and Adenine with 10 mM 3-AT; four independent colonies

Binder	binding
A. thaliana RAD23D (protein, UniProt Q84L30 1-378) MKIFVKTLSGSNFEIEVKPADKVSDVKTAIETVKGAEYPAAKQMLIHQGKVLKDETTLEENNVVENSFIVIMLSKTKASPSGASTASAPAPSATQPQTVATPQVSAPTASVPVPTSGTATAAAPATAASVQTDVYGQAASNLVAGTTLESTVQQILDMGGGSWDRDTVVRALRAAFNNPERAVEYLYSGIPAQAEIPPVAQAPATGEQAANPLAQPQQAAAPAAATGGPNANPLNLFPQGMPAADAGAGAGNLDFLRNSQQFQALRAMVQANPQILQPMLQELGKQNPQLVRLIQEHQADFLRLINEPVEGEENVMEQLEAAMPQAVTVTPEEREAIERLEGMGFDRAMVLEVFFACNKNEELAANYLLDHMHEFEDQ	binds
A. thaliana RAD23B (protein, UniProt Q84L33 1-371) MKLTVKTLKGSHFEIRVLPSDTIMAVKKNIEDSQGKDNYPCGQQLLIHNGKVLKDETSLVENKVTEEGFLVVMLSKSKSGGSAGQASVQTSSVSQPVSATTSSTKPAAPSTTQSSPVPASPIPAQEQPAAQTDTYGQAASTLVSGSSLEQMVQQIMEMGGGSWDKETVTRALRAAYNNPERAVDYLYSGIPQTAEVAVPVPEAQIAGSGAAPVAPASGGPNSSPLDLFPQETVAAAGSGDLGTLEFLRNNDQFQQLRTMVHSNPQILQPMLQELGKQNPQLLRLIQENQAEFLQLVNEPYEGSDGEGDMFDQPEQEMPHAINVTPAEQEAIQRLEAMGFDRALVIEAFLACDRNEELAANYLLENSGDFED	no binding
A. thaliana RAD23A (protein, UniProt Q84L32 1-368) MKLTVKTLKGSHFEIRVLPTDTIMAVKKNIEDSQSKDNYPCGQQLLIHNGKVLKDETTLVENKVTEEGFLVVMLSKSKTASSAGPSSTQPTSTTTSTISSTTLAAPSTTQSIAVPASNSTPVQEQPTAQSDTYGQAASTLVSGSSIEQMVQQIMEMGGGSWDKETVTRALRAAYNNPERAVDYLYSGIPETVTIPATNLSGVGSGRELTAPPPSGGPNSSPLDLFPQEAVSDAAGGDLGTLEFLRGNDQFQQLRSMVNSNPQILQPMLQELGKQNPQLLRLIQENQAEFLQLLNEPYEGSDGDVDIFDQPDQEMPHSVNVTPEEQESIERLEAMGFDRAIVIEAFLSCDRNEELAANYLLEHSADFED	no binding
A. thaliana RAD23C (proteasomal shuttle protein) (protein, UniProt Q84L31 1-419) MKIFVKTLKGTHFEIEVKPEDSVVDVKKNIESVQGADVYPAAKQMLIHQGKVLKDETTIEENKVAENSFIVIMMNKSKPASAAASSASAGTSQAKSIPPSTSQPSISPQTPASVSAPVAPAPTRPPPPAPTPTPAPVAATETVTTPIPEPVPATISSSTPAPDSAPVGSQGDVYGQAASNLAAGSNLESTIQQILDMGGGTWDRETVVLALRAAFNNPERAVEYLYTGIPEQAEVPPVARPPASAGQPANPPAQTQQPAAAPASGPNANPLDLFPQGLPNVGGNPGAGTLDFLRNSQQFQALRAMVQANPQVLQPMLQELGKQNPNLMRLIQDHQADFLRLINEPVEGGGESGNLLGQMAAGMPQPQAIQVTHEEREAIERLEAMGFERALVLEVFFACNKNEELAANYLLDHMHEFEE	binds
UBA2 domain of A. thaliana RAD23C (aa 353-419) (domain or fragment, UniProt Q84L31 353-419) GNLLGQMAAGMPQPQAIQVTHEEREAIERLEAMGFERALVLEVFFACNKNEELAANYLLDHMHEFEE	binds

Results are given in words; binding and its absence hold for the method and conditions named. Binding calls can cover weak binding; strength is not graded here.
